The results in this text go back to patent US5118599A, “Yellow couplers for photographic elements and processes” (Eastman Kodak Company, priority 1991, dated 1992).

The data set can be described thus: Photographic single layer element: Dmax, Dmin, gamma and λmax after color development. The note with it: for γ: maximum slope between two adjacent density points. On the procedure: Single layer photographic elements were prepared by coating a cellulose acetate-butyrate film support with a photosensitive layer containing a silver bromide emulsion at 70.2 and 140.4 mg/ft^2 for 2 and 4 equivalent couplers, respectively, gelatin at 350 mg/ft^2 and an image coupler (0.20 mmol/ft^2) dispersed in half its weight of dibutyl phthalate. The photosensitive layer was overcoated with a layer containing gelatin at 250 mg/ft^2 and bis vinylsulfonyl methyl ether hardener at 2.0 weight percent based on total gel.
Samples of each element were exposed imagewise through a stepped density test object and processed at 100° F. employing the following color developing solution, then stopped with a low pH bath, bleached, fixed, washed and dried to produce stepped colored images.
Color Developer Solution (2')
4-Amino-3-methyl-N-ethyl 3.55 g
Water to make 1 liter, pH 10.0
Densitometry in the appropriate color maximum density (Dmin and Dmax) and gamma defined as the maximum slope between any two adjacent density points.

The mark [1] stands for this setting: Table 4, color developer pH 10.0.

Take `CCOC1C(=O)N(C(C(=O)Nc2cc(NC(=O)CCCOc3ccc(C(C)(C)CC)cc3C(C)(C)CC)ccc2OC)C(=O)C2(C)COC(C)(C)OC2)C(=O)N1Cc1ccccc1` [Coupler D-8]: under setting [1], the Dmax worked out at 2.18, the Dmin came out at 0.06 and the γ was determined as 0.80.
`CCC(C)(C)c1ccc(OCCCC(=O)Nc2ccc(Cl)c(NC(=O)C(Oc3ccc(S(=O)(=O)c4ccc(OCc5ccccc5)cc4)cc3)C(=O)C(C)(C)C)c2)c(C(C)(C)CC)c1` (stereo not drawn) [P-III, reference compound]: under setting [1], the Dmax is recorded as 1.06, the Dmin turned out to be 0.05 and the γ was found to be 0.40.
With `CCCCCCCCCCCCCCCCS(=O)(=O)Nc1ccc(Cl)c(NC(=O)CC(=O)C2(C)COCOC2)c1` [Coupler D-4], under “Table 3, D99, pH 10.0, KS-2”, the Dmax is reported as 2.95, the Dmin is 0.06 and the γ stood at 1.10. Under setting [1], this molecule gave a Dmax of 2.95, a Dmin of 0.06 and a γ of 1.10.
Turning to `CCC(C)(C)c1ccc(OCCCC(=O)Nc2ccc(OC)c(NC(=O)C(Oc3ccc(S(=O)(=O)c4ccc(O)cc4)cc3)C(=O)C3(C)COCOC3)c2)c(C(C)(C)CC)c1` [Coupler D-14], under setting [1], the Dmax turned out to be 2.66, the Dmin amounted to 0.07 and the γ is 1.27.
The matching figures for `CCCCCCCCCCCCCCCCS(=O)(=O)Nc1ccc(Cl)c(NC(=O)C(Oc2ccc(S(=O)(=O)c3ccc(OCc4ccccc4)cc3)cc2)C(=O)C(C)(C)C)c1` (stereo not drawn) [P-I, reference compound]: 2.52, 0.06 and 0.77.
Under setting [1], `CCC(C)(C)c1ccc(OCCCC(=O)Nc2ccc(C)c(NC(=O)C(Oc3ccc(S(=O)(=O)c4ccc(O)cc4)cc3)C(=O)C3(C)COCOC3)c2)c(C(C)(C)CC)c1` [Coupler D-13] yielded a Dmax of 2.55, a Dmin of 0.06 and a γ of 0.90.
Under setting [1], `CCC(C)(C)c1ccc(OCCCC(=O)Nc2cccc(NC(=O)C(Oc3ccc(S(=O)(=O)c4ccc(O)cc4)cc3)C(=O)C3(C)COCOC3)c2)c(C(C)(C)CC)c1` [Coupler D-12] had a Dmax of 2.51, a Dmin of 0.06 and a γ of 0.90.
As for `CCCCCCCCCCCCCCCCS(=O)(=O)Nc1ccc(OC)c(NC(=O)CC(=O)C2(C)COC(C)(C)OC2)c1` [Coupler D-2], under “Table 3, D99, pH 10.0, KS-2”, the Dmax stood at 1.92, the Dmin worked out at 0.06 and the γ turned out to be 0.60.
Under setting [1], `CCC(C)(C)c1ccc(OCCCC(=O)Nc2ccc(OC)c(NC(=O)C(Oc3ccc(S(=O)(=O)c4ccc(O)cc4)cc3)C(=O)C3(C)COC(C)(C)OC3)c2)c(C(C)(C)CC)c1` [Coupler D-7] showed a Dmax of 2.51, a Dmin of 0.05 and a γ of 0.83.
For the setting “Table 3, D99, pH 10.0, KS-2”, `CCC(C)(C)c1ccc(OCCCC(=O)Nc2ccc(Cl)c(NC(=O)CC(=O)C3(C)COCOC3)c2)c(C(C)(C)CC)c1` [Coupler D-5] returned a Dmax of 2.46, a Dmin of 0.05 and a γ of 0.83. Under setting [1], the Dmax was found to be 2.46, the Dmin worked out at 0.05 and the γ is 0.83.
For `CCCCCCCCCCCCCCCCS(=O)(=O)Nc1ccc(Cl)c(NC(=O)CC(=O)C(C)(C)C)c1` [P-V, reference compound], for the setting “Table 3, D99, pH 10.0, KS-2”, the Dmax is listed as 1.11, the Dmin is given as 0.06 and the γ stood at 0.43. Under setting [1], this molecule returned a Dmax of 1.10, a Dmin of 0.06 and a γ of 0.43.
Under setting [1], `CCC(C)(C)c1ccc(OCCCC(=O)Nc2ccc(OC)c(NC(=O)CC(=O)C3(C)COCOC3)c2)c(C(C)(C)CC)c1` [Coupler D-3] displayed a Dmax of 2.84, a Dmin of 0.06 and a γ of 0.80.
For the molecule `CCC(C)(C)c1ccc(OCCCC(=O)Nc2ccc(Cl)c(NC(=O)C(Oc3ccc(S(=O)(=O)c4ccc(O)cc4)cc3)C(=O)C3(C)COCOC3)c2)c(C(C)(C)CC)c1` [Coupler D-10], under setting [1], the Dmax came to 3.07, the Dmin turned out to be 0.06 and the γ amounted to 1.13.
Turning to `CCC(C)(C)c1ccc(OCCCC(=O)Nc2ccc(Cl)c(NC(=O)CC(=O)C(C)(C)C)c2)c(C(C)(C)CC)c1` [P-VI, reference compound], where the note is “Table 3, D99, pH 10.0, KS-2”, the Dmax came out at 0.25, the Dmin is recorded as 0.05 and the γ came to 0.10. Under setting [1], the Dmax is 0.25, the Dmin is 0.05 and the γ turned out to be 0.10.
